Laboratory results reported in article PMC4104027.
Results are given in words; binding and its absence hold for the method and conditions named. For some assays here: Binding seen in cells or lysates may run through a third protein. Some entries that bind do so weakly or less than the wild type.

By UniProt entry, the sequences of proteins in these tests, tags left out. Where a name states a change or a piece, a line headed by the entry shows the natural chain unless it says otherwise. Residues count along the entry.
UniProt Q9BV68: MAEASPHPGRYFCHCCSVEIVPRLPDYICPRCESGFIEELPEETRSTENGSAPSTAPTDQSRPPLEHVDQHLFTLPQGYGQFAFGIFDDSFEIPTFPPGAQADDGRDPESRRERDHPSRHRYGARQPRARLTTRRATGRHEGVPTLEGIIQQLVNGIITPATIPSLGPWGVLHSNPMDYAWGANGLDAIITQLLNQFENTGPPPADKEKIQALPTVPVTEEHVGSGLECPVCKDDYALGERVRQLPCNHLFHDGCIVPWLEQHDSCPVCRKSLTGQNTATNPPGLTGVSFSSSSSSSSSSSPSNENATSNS
RNF126F, construct encoding only the first 100 residues of RNF126, expressed in cells: residues 1-100 of Q9BV68
UniProt P08659: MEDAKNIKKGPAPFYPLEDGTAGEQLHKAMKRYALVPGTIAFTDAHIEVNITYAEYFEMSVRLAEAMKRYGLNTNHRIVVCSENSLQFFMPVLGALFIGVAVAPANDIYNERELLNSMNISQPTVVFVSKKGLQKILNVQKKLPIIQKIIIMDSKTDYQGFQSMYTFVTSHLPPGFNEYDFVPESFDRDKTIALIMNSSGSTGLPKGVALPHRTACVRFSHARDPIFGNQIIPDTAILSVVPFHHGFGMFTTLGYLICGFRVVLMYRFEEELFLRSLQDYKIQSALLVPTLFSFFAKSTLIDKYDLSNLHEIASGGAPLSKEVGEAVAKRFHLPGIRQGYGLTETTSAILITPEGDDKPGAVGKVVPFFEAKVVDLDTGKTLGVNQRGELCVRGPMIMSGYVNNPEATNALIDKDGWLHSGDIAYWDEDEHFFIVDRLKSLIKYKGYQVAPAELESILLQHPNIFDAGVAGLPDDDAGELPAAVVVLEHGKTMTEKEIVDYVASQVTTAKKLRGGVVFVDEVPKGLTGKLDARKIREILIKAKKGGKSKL

Key:
[1] = biological target: RNF126F, construct encoding only the first 100 residues of RNF126, expressed in cells (UniProt Q9BV68); test: co-IP
3xHA-tagged RNF126 = 3xHA-tagged RNF126 (UniProt Q9BV68); test: co-IP; epitope-tagged Bag6 and RNF126 constructs coexpressed in HEK293T; IP with anti-HA antibodies, immunoblot
recombinant Bag6 = recombinant Bag6 (UniProt P46379); test: maintenance of solubility on heating (centrifugation, SDS-PAGE, Coomassie); equimolar rBag6 (or ΔUbl-rBag6) and luciferase heated to 42°C for 20 min, aggregates removed by centrifugation (10 min, 20,000 x g); both purified
[2] = biological target: Bag6 (endogenous, cellular) (human (endogenous in HEK293T)) (UniProt P46379); test: co-IP
FLAG-tagged Bag6 = FLAG-tagged Bag6 (UniProt P46379)

## FLAG-tagged Bag6 (from UniProt P46379 1-1132)
[1]
  binding: binds
3xHA-tagged RNF126
  binding: binds

## Firefly luciferase (from UniProt P08659 1-550) (enzyme)
Recombinant Bag6
  binding: binds

## Glycosylated wild-type PrP (from UniProt P04156 23-230)
[2]
  binding: no binding

B1: RNF123 (enzyme, UniProt Q5XPI4 1-1314)
chain: MASKGAGMSFSRKSYRLTSDAEKSRVTGIVQEKLLNDYLNRIFSSSEHAPPAATSRKPLNFQNLPEHLDQLLQVDNEEEESQGQVEGRLGPSTVVLDHTGGFEGLLLVDDDLLGVIGHSNFGTIRSTTCVYKGKWLYEVLISSQGLMQIGWCTISCRFNQEEGVGDTHNSYAYDGNRVRKWNVTTTNYGKAWAAGDIVSCLIDLDDGTLSFCLNGVSLGTAFENLSRGLGMAYFPAISLSFKESVAFNFGSRPLRYPVAGYRPLQDPPSADLVRAQRLLGCFRAVLSVELDPVEGRLLDKESSKWRLRGQPTVLLTLAHIFHHFAPLLRKVYLVEAVLMSFLLGIVEKGTPTQAQSVVHQVLDLLWLFMEDYEVQDCLKQLMMSLLRLYRFSPIVPDLGLQIHYLRLTIAILRHEKSRKFLLSNVLFDVLRSVVFFYIKSPLRVEEAGLQELIPTTWWPHCSSREGKESTEMKEETAEERLRRRAYERGCQRLRKRIEVVEELQVQILKLLLDNKDDNGGEASRYIFLTKFRKFLQENASGRGNMPMLCPPEYMVCFLHRLISALRYYWDEYKASNPHASFSEEAYIPPQVFYNGKVDYFDLQRLGGLLSHLRKTLKDDLASKANIVIDPLELQSTAMDDLDEDEEPAPAMAQRPMQALAVGGPLPLPRPGWLSSPTLGRANRFLSTAAVSLMTPRRPLSTSEKVKVRTLSVEQRTREDIEGSHWNEGLLLGRPPEEPEQPLTENSLLEVLDGAVMMYNLSVHQQLGKMVGVSDDVNEYAMALRDTEDKLRRCPKRRKDILAELTKSQKVFSEKLDHLSRRLAWVHATVYSQEKMLDIYWLLRVCLRTIEHGDRTGSLFAFMPEFYLSVAINSYSALKNYFGPVHSMEELPGYEETLTRLAAILAKHFADARIVGTDIRDSLMQALASYVCYPHSLRAVERIPEEQRIAMVRNLLAPYEQRPWAQTNWILVRLWRGCGFGYRYTRLPHLLKTKLEDANLPSLQKPCPSTLLQQHMADLLQQGPDVAPSFLNSVLNQLNWAFSEFIGMIQEIQQAAERLERNFVDSRQLKVCATCFDLSVSLLRVLEMTITLVPEIFLDWTRPTSEMLLRRLAQLLNQVLNRVTAERNLFDRVVTLRLPGLESVDHYPILVAVTGILVQLLVRGPASEREQATSVLLADPCFQLRSICYLLGQPEPPAPGTALPAPDRKRFSLQSYADYISADELAQVEQMLAHLTSASAQAAAASLPTSEEDLCPICYAHPISAVFQPCGHKSCKACINQHLMNNKDCFFCKTTIVSVEDWEKGANTSTTSSAA
FLAG-tagged Bag6
  binding: binds
